{"source": "PubChem BioAssay AID588497", "about": "(NMMLSC, 2011)", "note": "Hit rate of the full screen: of about 360,000 compounds, about 780 (0.22%) were called active. The inconclusive results got no clear call from the source; some entries with a clear call stand among them for comparison. Cut-off read from the data, not from the text of the source: active = inhibition above about 35% (passing the limit was not always enough); inconclusive = no clear call, values can overlap the other calls."}
{"system": "Botulinum neurotoxin type F light chain protease (Clostridium botulinum)", "assay": "BoNT/F light chain protease inhibitors, primary screen, biochemical, flow cytometry, MLPCN library (AID 588497); note: plate controls were buffer without enzyme for full effect and enzyme alone for no effect", "conditions": "Multiplex microsphere protease cleavage assay, at 10 µM, stronger effect = higher value"}
{"smiles": "Cc1cccc(NC(=O)CN2CCN(CC(=O)Nc3ccc(-c4ccccc4)cc3)CC2)c1C", "inhibition": "inactive: -11.5%"}
{"smiles": "O=[N+]([O-])c1ccc(S(=O)(=O)c2ccccc2)nc1", "inhibition": "inconclusive: 13.2%"}
{"smiles": "CCOC(=O)Cc1nnc(NC(=O)Nc2ccccc2)s1", "inhibition": "inconclusive: -14.3%"}
{"smiles": "O=[N+]([O-])c1ccccc1Nc1cccc(F)c1", "inhibition": "inactive: -1.8%"}
{"smiles": "C=C1c2cc(C)c(C)cc2NC(=O)N1c1ccccc1", "inhibition": "inconclusive: 4.9%"}
{"smiles": "COc1ccccc1/C=C/C=c1\\sc2nc(=O)c(Cc3ccccc3)nn2c1=O", "inhibition": "inconclusive: 43.6%"}
{"smiles": "COc1cccc(/C=N/NC(=O)CCn2cnc3ccccc32)c1", "inhibition": "inconclusive: -28%"}
{"smiles": "CCCN(CCC)C(=O)c1ccc2c(c1)N(CC)C(=O)c1ccccc1S2(=O)=O", "inhibition": "inconclusive: 15%"}
{"smiles": "Cc1c(S(=O)(=O)Nc2cccc3ccccc23)c(=O)n(C)c(=O)n1C", "inhibition": "inconclusive: -0.4%"}
{"smiles": "COc1ccc(S(=O)(=O)Nc2c(O)ccc3ccccc23)cc1OC", "inhibition": "inconclusive: -34.8%"}
{"smiles": "C#Cc1ccc(NC(=O)C2(C)CCN2C(=O)C2(c3ccccc3)CCCC2)cc1", "note": "(stereo not given)", "inhibition": "inactive: -2.6%"}
{"smiles": "CN1CCN(c2ccc(CNC(=O)c3ccco3)cc2)CC1", "inhibition": "inconclusive: -16.4%"}
{"smiles": "CCn1c(SCC(=O)Nc2ccc(OC)cc2OC)nc2nc3c(cc2c1=O)COC(C)(C)C3", "inhibition": "inconclusive: -34.4%"}
{"smiles": "Cc1cccc(NC(=O)c2ccc(NS(=O)(=O)c3cccc4cccnc34)cc2)c1", "inhibition": "inconclusive: 6.9%"}
{"smiles": "COc1ccc(C(=O)N2CCN(Cc3cc(OC)c(O)c(OC)c3)CC2)cc1OC", "inhibition": "inactive: -4.2%"}
{"smiles": "COC(=O)[C@]12CCCCC=C1N(CCC1=CCCCC1)C(=O)[C@H](CC(=O)N1CCN(C(=O)C3CC3)CC1)C2", "inhibition": "inactive: -5.4%"}
{"smiles": "Cc1cc(C)c2nc(Cl)c(Cl)nc2c1", "inhibition": "inconclusive: -24.4%"}
{"smiles": "O=C(N/N=C/c1ccc(N2CCOCC2)s1)c1ccc(NS(=O)(=O)c2cccs2)cc1", "inhibition": "inactive: -2%"}
{"smiles": "CCOC(=O)CNC(=O)CSc1nnc(COc2ccc(Cl)cc2)n1CC", "inhibition": "inconclusive: -23.3%"}
{"smiles": "COc1ccc(C(=O)N2CCC(C(=O)Nc3ccccc3OC)CC2)cc1", "inhibition": "inactive: -2.7%"}
{"smiles": "Cn1ccc(NC(=O)Nc2ccc(Cl)cc2)n1", "inhibition": "inconclusive: -33.9%"}
{"smiles": "CC/C(=N\\NC(N)=O)c1c(O)[nH]c(=O)[nH]c1=O", "inhibition": "inconclusive: -69.7%"}
{"smiles": "C=CCNC(=O)c1ccc(CN2CCC(Cc3ccccc3)CC2)cc1", "inhibition": "inconclusive: 6.1%"}
{"smiles": "Cc1c(NC(=O)CSc2nc3ccccc3n2C)c(=O)n(-c2ccccc2)n1C", "inhibition": "inactive: -0.2%"}
{"smiles": "CNC(=S)N1N=C(c2cccs2)CC1c1ccc(F)cc1", "note": "(stereo not given)", "inhibition": "active: 50%"}
{"smiles": "CN1c2ccccc2C(=O)NC1c1ccc([N+](=O)[O-])s1", "note": "(stereo not given)", "inhibition": "inconclusive: 61.1%"}
{"smiles": "CNC(=S)N/N=C/c1cc(Br)c(OCc2ccncc2)c(OC)c1", "inhibition": "inconclusive: 17.8%"}
{"smiles": "CN1CCN(S(=O)(=O)c2ccc(Nc3ccc(F)cc3)c([N+](=O)[O-])c2)CC1", "inhibition": "inconclusive: 5.7%"}
{"smiles": "Cc1cc(C)c2c(n1)sc1c(=O)n(CC(=O)c3ccccc3)cnc12", "inhibition": "inconclusive: 18%"}
{"smiles": "CN1CCN(/N=C/c2ccc(OCc3ccccc3)cc2)CC1", "inhibition": "inconclusive: -7.7%"}
{"smiles": "Fc1ccc(NC(=S)N2CCN(c3ccccn3)CC2)cc1Cl", "inhibition": "inconclusive: 2.4%"}
{"smiles": "CC(=O)Nc1ccc(C=C(C(C)=O)C(C)=O)cc1", "inhibition": "inconclusive: -121%"}
{"smiles": "O=C(Nc1ccc2c(c1)OCO2)c1cnc(Cl)c(Cl)c1", "inhibition": "inconclusive: -5%"}
{"smiles": "CCOC(=O)c1nc(C)nc(Sc2n[nH]c(-c3cc(C(F)(F)F)cc(C(F)(F)F)c3)n2)c1C", "inhibition": "inconclusive: 49.7%"}
{"smiles": "CC(C)NC(=O)N(C)C[C@H]1Oc2ccc(NS(=O)(=O)c3ccccc3)cc2C(=O)N([C@H](C)CO)C[C@@H]1C", "inhibition": "inactive: -4.1%"}
{"smiles": "COc1ccc(CCNC(=O)Cn2cnc3c(cnn3-c3ccccc3Cl)c2=O)cc1OC", "inhibition": "inactive: 4.5%"}
{"smiles": "Cc1nc(C)c(-c2ccn(C(=O)NC(C)C)n2)s1", "inhibition": "active: 38.3%"}
{"smiles": "Cc1c(C(=O)NCc2ccc3c(c2)OCCO3)sc(=O)n1Cc1ccccc1C(F)(F)F", "inhibition": "inactive: -1.2%"}
{"smiles": "CCC1SC(C)C/C(=N/NC(N)=O)C1C", "note": "(stereo not given)", "inhibition": "inconclusive: 17.1%"}
{"smiles": "CC1(C)CC(=O)C=C(c2ccc3ccccc3c2)C1", "inhibition": "inactive: 8.5%"}
{"smiles": "CN(C)C(CNc1ccc(C(F)(F)F)cc1[N+](=O)[O-])c1ccccc1", "note": "(stereo not given)", "inhibition": "inactive: 17%"}
{"smiles": "COc1ccc(NC(=O)c2ccc(CN3CCc4ccccc4C3)cc2)cc1OC", "inhibition": "inconclusive: -29.5%"}
{"smiles": "O=C(N/N=C\\c1c(O)ccc2ccccc12)c1ccc(O)cc1", "inhibition": "inconclusive: -5.2%"}
{"smiles": "C#CCCOC(=O)Nc1ccccc1", "inhibition": "inconclusive: 14.9%"}
{"smiles": "COc1ccccc1N1CCN(/N=C/c2ccc(O)cc2O)CC1", "inhibition": "inconclusive: 38.2%"}
